Binding data for five substances are collected here from publication PMC10486482.

Sequences of proteins named here, by UniProt entry; tags and fusion partners are left off.
UniProt O97758: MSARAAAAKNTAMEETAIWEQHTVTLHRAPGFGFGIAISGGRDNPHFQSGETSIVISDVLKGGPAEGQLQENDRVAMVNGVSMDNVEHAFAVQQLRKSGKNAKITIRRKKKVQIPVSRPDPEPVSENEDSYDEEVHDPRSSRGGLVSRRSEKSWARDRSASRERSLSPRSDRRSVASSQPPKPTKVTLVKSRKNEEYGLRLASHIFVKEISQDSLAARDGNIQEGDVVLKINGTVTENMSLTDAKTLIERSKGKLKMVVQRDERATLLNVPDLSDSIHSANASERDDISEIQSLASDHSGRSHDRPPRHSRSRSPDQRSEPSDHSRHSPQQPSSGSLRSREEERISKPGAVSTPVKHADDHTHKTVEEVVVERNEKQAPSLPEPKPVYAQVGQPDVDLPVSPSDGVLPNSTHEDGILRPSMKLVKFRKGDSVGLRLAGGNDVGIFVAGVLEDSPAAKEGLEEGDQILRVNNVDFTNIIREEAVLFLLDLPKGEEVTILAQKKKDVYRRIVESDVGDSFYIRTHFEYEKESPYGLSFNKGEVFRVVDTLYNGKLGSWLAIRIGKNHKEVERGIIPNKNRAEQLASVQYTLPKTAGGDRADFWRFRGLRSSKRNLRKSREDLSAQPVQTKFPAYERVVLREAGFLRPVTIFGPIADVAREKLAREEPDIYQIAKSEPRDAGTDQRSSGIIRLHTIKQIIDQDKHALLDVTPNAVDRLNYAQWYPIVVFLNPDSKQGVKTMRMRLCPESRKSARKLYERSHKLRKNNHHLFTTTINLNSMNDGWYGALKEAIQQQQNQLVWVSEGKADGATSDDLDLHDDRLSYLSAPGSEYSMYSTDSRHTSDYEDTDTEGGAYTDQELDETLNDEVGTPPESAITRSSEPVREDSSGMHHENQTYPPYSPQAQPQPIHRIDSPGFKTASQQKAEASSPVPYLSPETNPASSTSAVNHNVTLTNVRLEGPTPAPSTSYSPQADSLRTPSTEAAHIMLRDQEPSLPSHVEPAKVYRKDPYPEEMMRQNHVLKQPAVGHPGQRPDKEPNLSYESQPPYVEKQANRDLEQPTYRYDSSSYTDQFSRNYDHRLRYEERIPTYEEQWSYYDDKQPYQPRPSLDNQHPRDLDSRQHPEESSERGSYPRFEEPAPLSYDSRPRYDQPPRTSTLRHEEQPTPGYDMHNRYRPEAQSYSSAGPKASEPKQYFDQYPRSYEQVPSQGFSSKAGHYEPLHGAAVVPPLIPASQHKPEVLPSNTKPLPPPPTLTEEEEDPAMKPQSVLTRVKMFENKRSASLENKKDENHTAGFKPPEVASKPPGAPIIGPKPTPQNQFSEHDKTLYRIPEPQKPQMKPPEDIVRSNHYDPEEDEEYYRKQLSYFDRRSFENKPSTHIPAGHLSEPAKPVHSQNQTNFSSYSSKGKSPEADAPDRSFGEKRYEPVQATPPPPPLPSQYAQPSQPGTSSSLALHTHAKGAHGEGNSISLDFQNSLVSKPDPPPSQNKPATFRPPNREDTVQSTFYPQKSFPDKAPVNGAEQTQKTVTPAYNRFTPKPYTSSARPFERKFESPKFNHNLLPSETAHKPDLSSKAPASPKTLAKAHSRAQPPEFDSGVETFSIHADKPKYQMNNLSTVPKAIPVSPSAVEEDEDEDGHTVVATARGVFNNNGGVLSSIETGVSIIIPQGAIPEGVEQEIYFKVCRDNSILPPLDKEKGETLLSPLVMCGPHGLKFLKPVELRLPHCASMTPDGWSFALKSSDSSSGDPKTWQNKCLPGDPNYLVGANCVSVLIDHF

For this experiment, the target named is T1, BirA-p100AmotL2 (human p100AmotL2 fused to the promiscuous E. coli biotin ligase BirA*) (human) (UniProt Q9Y2J4).
T1 sequence: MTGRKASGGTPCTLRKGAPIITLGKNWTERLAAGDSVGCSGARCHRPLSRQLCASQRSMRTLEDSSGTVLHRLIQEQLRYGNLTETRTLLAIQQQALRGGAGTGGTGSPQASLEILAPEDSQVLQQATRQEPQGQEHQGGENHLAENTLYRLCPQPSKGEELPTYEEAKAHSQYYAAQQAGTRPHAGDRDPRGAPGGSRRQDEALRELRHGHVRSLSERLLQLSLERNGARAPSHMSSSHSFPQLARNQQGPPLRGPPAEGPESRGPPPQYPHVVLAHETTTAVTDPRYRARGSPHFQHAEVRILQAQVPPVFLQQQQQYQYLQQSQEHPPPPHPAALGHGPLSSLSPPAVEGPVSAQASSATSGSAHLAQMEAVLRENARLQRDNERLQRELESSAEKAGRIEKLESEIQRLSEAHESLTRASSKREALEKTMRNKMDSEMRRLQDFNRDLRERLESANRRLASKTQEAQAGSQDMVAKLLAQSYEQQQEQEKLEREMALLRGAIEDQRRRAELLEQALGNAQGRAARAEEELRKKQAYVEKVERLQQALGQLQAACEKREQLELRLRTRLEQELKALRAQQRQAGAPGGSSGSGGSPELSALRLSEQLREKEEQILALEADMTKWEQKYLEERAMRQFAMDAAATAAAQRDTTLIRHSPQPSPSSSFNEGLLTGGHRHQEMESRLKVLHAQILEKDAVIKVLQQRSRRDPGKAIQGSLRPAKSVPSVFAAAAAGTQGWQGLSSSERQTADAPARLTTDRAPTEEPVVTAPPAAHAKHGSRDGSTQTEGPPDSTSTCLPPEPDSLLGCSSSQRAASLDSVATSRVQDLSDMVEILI
The experiment is described as follows: proximity labelling; BioID: MDCK cells stably expressing BirA-p100AmotL2, 50 µM biotin for 16 h; lysis in 8 M urea buffer; biotinylated proteins purified on streptavidin beads and identified by mass spectrometry; controls were empty vector ± biotin and p100AmotL2 without biotin; n = 3.

These are yes or no findings as the source states them, for the method shown. Binding seen in cells or lysates may run through a third protein. Here binding means that the protein was enriched with, or labelled near, the bait; the list need not be complete. Sequences can lack the tags named with a protein.

As to “Mothers against decapentaplegic homolog 3 (canine (endogenous in MDCK))”, the binding result was “binds”.
For “Zona Occludens-1 (from UniProt O97758 1-1769)”, the binding result is “binds”.
The result for “alpha-catenin (canine (endogenous in MDCK))” reads “binds”; that for “p120 catenin (canine (endogenous in MDCK))”, “binds”; that for vinculin (canine (endogenous in MDCK)), “binds”.
